{"source": "patent US20250281630A1", "about": "(TORAY INDUSTRIES, published 2025)", "binders": {"B1": {"name": "Conjugate 12 (antibody, human IgG1, V domains shown)", "VH": "EQSLVESGGGLVQPGGSLRLSCAASGFSLSSHSLGWVRQAPGKGLEWIGDIRSGGSAYYANWAKGRFTISRDNSKNTLYLQMNSLRAEDTAVYYCTRTNGPSDLTNRLDLWGQGTLVTVSS", "VL": "QVLTQSPSSLSASVGDRVTINCQASQSLYNNENLAWFQQKPGKVPKRLIYGASTLASGVSSRFSGSGSGTEFTLTISSLQCEDFAIYYCLGEFSCGSADCFAFGGGTKVEIK"}, "B2": {"name": "Conjugate 36 (antibody, human IgG1, V domains shown)", "VH": "GPDLVKPGASVKISCKASGYSFTAYYMHWVKQSHGKSLEWIGRVNPNNGGTTYNQKFKGKAILTVDKSSSTAYMELRSLTFEDSAVYYCARRIYYGYFDYWGQGTTVTVSS", "VL": "AFFAVSLGQRATISCKASQSVDYDGDSYMNWYQQKPGQPPKLLIYVASNLESGVPARFSGSGSGTDFTLNIHPVEEEDAATYYCQQSNEDPYTFGGGTKLEIKQ"}, "B3": {"name": "Conjugate 48 (antibody, human IgG1, V domains shown)", "VH": "AVTLDESGGGLQTPGGALSLVCKASGFTFSGYDMLWVRQAPGKGLEWVAGIGSTGGGTDYGAAVKGRATISRDNGQSTVRLQLNNLRAEDTATYYCAKVAGGCNSGYCRDSPGSIDAWGHGTEVIVS", "VL": "AVTQQPASVSANPGETVKITCSGGGSRNYYGWYQQKSPGSVPVTVIYYDDQRPSNIPSRFSGALSGSTSTLTITGVQADDEAVYFCGSADSNTYEGSFGAGTTLTVL"}, "B4": {"name": "Conjugate 52 (antibody, human IgG1, V domains shown)", "VH": "GAELVRSGASVKMSCKASGYSFTDYNMYWVKQTPGQGLEWIGYIYPGNGGTNYNQKFKGKATLTADTSSSTAYMQISSLTSEDSAVYFCARDYDDGGYAMDYWGQGTTVTVSS", "VL": "DIQMTQSPASLSASVGETVTITCRASGNIHNYLTWYQQKQGKSPQLLVYNAKTLADGVPSRFSGSGSGTQYSLKINRLQPEDFGSYYCQHFWNIPWTFGGGTKLNSR"}, "B5": {"name": "Conjugate 53 (antibody, human IgG1, V domains shown)", "VH": "DAELVKPGASVKISCKASGYTFTDHSIHWVQQKPEQGLEWIGYISPGNGNIKYNEKFKGKATLTADKSSSTAYMQLNSLTSEDSAVYFCKRSLGRGGPYYFDYWGQGTTVTVSS", "VL": "DIVLTQAAPSLPVTPGESVSISCRSSKSLLHSNGNTYLYWFLQRPGQSPQLLIYRMSNLASGVPDRFSGSGSGTAFTLRISRVEAEDVGVYYCMQHREYPVTFGSGPN"}, "B6": {"name": "Conjugate 69 (antibody, human IgG1, V domains shown)", "VH": "B2 VH", "VL": "B2 VL"}, "B7": {"name": "Conjugate 75 (antibody, human IgG1, V domains shown)", "VH": "B1 VH with Q2V, S3Q", "VL": "B1 VL"}, "B8": {"name": "Conjugate 76 (antibody, human IgG1, V domains shown)", "VH": "B1 VH with Q2V, S3Q, Y94F", "VL": "B1 VL"}, "B9": {"name": "Conjugate 77 (antibody, human IgG1, V domains shown)", "VH": "B1 VH with Q2V, S3Q", "VL": "EQVLTQSPSSLSASVGDRVTINCQASQSLYNNENLAWFQQKPGKVPKRLIYGASTLASGVSSRFSGSGSGTEFTLTISNLQPEDFAIYYCLGEFSCGSADCFAFGGGTKVEIK"}, "B10": {"name": "Conjugate 78 (antibody, human IgG1, V domains shown)", "VH": "B1 VH with Q2V, S3Q, Y94F", "VL": "B9 VL with Q2I, I87T"}, "B11": {"name": "Conjugate 79 (antibody, human IgG1, V domains shown)", "VH": "B1 VH with Q2V, S3Q", "VL": "B9 VL with Q2I, I87T"}, "B12": {"name": "Conjugate 80 (antibody, human IgG1, V domains shown)", "VH": "B1 VH with Q2V, S3Q, Y94F", "VL": "B9 VL"}, "B13": {"name": "Conjugate 92 (antibody, V domains shown)", "VH": "B1 VH", "VL": "B1 VL"}, "B14": {"name": "Conjugate 116 (antibody, V domains shown)", "VH": "B2 VH", "VL": "B2 VL"}, "B15": {"name": "Conjugate 128 (antibody, V domains shown)", "VH": "B3 VH", "VL": "B3 VL"}, "B16": {"name": "Conjugate 132 (antibody, V domains shown)", "VH": "B4 VH", "VL": "B4 VL"}}, "note": "Substitutions are numbered along the chain they refer to. No constants are given. Whether binding was seen depends on the method and setting. Some entries that bind do so weakly or less than the wild type.", "data": [{"target": "T1, human CAPRIN-1 on the cell membrane surface of human cancer cells (human) (UniProt Q14444)", "T1 sequence (looked up)": "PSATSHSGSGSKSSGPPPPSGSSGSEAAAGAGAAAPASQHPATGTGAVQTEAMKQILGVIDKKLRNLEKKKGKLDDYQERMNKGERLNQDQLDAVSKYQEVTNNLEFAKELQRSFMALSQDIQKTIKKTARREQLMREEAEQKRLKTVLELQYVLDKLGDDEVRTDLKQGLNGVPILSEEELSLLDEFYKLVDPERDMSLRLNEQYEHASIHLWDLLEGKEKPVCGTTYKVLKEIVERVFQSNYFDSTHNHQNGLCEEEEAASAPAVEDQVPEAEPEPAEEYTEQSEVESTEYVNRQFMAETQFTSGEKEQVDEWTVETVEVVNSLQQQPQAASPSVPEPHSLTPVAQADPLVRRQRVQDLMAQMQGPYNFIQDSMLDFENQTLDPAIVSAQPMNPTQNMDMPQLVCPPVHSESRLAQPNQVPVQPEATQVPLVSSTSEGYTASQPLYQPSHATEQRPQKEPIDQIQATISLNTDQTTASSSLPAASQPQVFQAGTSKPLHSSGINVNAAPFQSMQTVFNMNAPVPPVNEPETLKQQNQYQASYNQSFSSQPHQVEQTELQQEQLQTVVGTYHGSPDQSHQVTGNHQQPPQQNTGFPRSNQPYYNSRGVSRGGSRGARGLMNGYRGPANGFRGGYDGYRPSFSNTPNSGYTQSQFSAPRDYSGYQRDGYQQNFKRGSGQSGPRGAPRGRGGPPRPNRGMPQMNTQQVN", "experiment": "flow cytometry, BT474 cells", "values": [{"binder": "B1", "binding": "binds"}, {"binder": "B2", "binding": "binds"}, {"binder": "B3", "binding": "binds"}, {"binder": "B4", "binding": "binds"}, {"binder": "B5", "binding": "binds"}, {"binder": "B6", "binding": "binds"}, {"binder": "B7", "binding": "binds"}, {"binder": "B8", "binding": "binds"}, {"binder": "B9", "binding": "binds"}, {"binder": "B10", "binding": "binds"}, {"binder": "B11", "binding": "binds"}, {"binder": "B12", "binding": "binds"}, {"binder": "B13", "binding": "binds"}, {"binder": "B14", "binding": "binds"}, {"binder": "B15", "binding": "binds"}, {"binder": "B16", "binding": "binds"}]}, {"target": "T2, mouse CAPRIN-1 on mouse cancer cells (mouse, UniProt Q60865 2-707)", "T2 construct": "whole, on cells", "T2 sequence (looked up)": "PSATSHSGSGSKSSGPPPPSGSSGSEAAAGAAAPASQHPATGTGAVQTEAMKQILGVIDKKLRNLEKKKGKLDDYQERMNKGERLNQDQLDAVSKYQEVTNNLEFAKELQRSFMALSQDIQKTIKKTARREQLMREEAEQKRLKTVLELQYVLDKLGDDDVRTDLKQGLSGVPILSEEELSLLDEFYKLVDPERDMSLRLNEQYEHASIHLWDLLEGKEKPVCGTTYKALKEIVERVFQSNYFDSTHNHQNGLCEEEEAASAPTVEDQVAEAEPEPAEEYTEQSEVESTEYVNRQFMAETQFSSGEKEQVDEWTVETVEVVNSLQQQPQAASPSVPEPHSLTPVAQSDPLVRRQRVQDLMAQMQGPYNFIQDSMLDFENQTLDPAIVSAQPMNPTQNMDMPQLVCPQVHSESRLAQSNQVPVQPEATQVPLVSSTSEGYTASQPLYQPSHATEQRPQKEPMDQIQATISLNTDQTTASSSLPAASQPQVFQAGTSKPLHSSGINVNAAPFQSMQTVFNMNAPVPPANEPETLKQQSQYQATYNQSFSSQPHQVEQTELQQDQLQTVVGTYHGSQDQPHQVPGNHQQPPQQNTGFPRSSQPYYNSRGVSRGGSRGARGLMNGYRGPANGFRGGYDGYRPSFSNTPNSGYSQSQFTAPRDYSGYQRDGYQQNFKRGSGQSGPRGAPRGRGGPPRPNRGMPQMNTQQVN", "experiment": "flow cytometry, Renca and 4T1 cells", "values": [{"binder": "B1", "binding": "binds"}, {"binder": "B2", "binding": "binds"}, {"binder": "B3", "binding": "binds"}, {"binder": "B4", "binding": "binds"}, {"binder": "B5", "binding": "binds"}, {"binder": "B6", "binding": "binds"}, {"binder": "B7", "binding": "binds"}, {"binder": "B8", "binding": "binds"}, {"binder": "B9", "binding": "binds"}, {"binder": "B10", "binding": "binds"}, {"binder": "B11", "binding": "binds"}, {"binder": "B12", "binding": "binds"}, {"binder": "B13", "binding": "binds"}, {"binder": "B14", "binding": "binds"}, {"binder": "B15", "binding": "binds"}, {"binder": "B16", "binding": "binds"}]}, {"target": "T1, human CAPRIN-1 on the cell membrane surface of human cancer cells (human)", "experiment": "HT29 cells, as shown in Example 5", "values": [{"binder": "B1", "binding": "binds"}, {"binder": "B2", "binding": "binds"}, {"binder": "B3", "binding": "binds"}, {"binder": "B4", "binding": "binds"}, {"binder": "B5", "binding": "binds"}, {"binder": "B6", "binding": "binds"}, {"binder": "B7", "binding": "binds"}, {"binder": "B8", "binding": "binds"}, {"binder": "B9", "binding": "binds"}, {"binder": "B10", "binding": "binds"}, {"binder": "B11", "binding": "binds"}, {"binder": "B12", "binding": "binds"}, {"binder": "B13", "binding": "binds"}, {"binder": "B14", "binding": "binds"}, {"binder": "B15", "binding": "binds"}, {"binder": "B16", "binding": "binds"}]}, {"target": "T1, human CAPRIN-1 on the cell membrane surface of human cancer cells (human)", "experiment": "flow cytometry, human cancer cell lines", "values": [{"binder": "B1", "binding": "binds"}, {"binder": "B2", "binding": "binds"}, {"binder": "B3", "binding": "binds"}, {"binder": "B4", "binding": "binds"}, {"binder": "B5", "binding": "binds"}, {"binder": "B6", "binding": "binds"}, {"binder": "B7", "binding": "binds"}, {"binder": "B8", "binding": "binds"}, {"binder": "B9", "binding": "binds"}, {"binder": "B10", "binding": "binds"}, {"binder": "B11", "binding": "binds"}, {"binder": "B12", "binding": "binds"}, {"binder": "B13", "binding": "binds"}, {"binder": "B14", "binding": "binds"}, {"binder": "B15", "binding": "binds"}, {"binder": "B16", "binding": "binds"}]}]}
